From article PMC5053674
Results are given in words; binding and its absence hold for the method and conditions named. Binding seen in cells or lysates may run through a third protein.

Biological target: human epidermal growth factor receptor 2 (ErbB2/Her2) (human (endogenous in BT474 and BT474-TR)) (UniProt P04626)
Assay: co-IP; immunoprecipitation of Her2 (anti-Her2 antibody on beads, 2 mg lysate, overnight at 4°C, washed with RIPA buffer) from BT474-TR and BT474 lysates, western blotting; IgG as control; for c-Cbl: cells transfected with vector or ATG9A-encoding plasmid, trastuzumab 20 μg/ml for 48 hours

binding: no binding
B1: autophagy related protein 9A (ATG9A) (protein, UniProt Q7Z3C6 1-839)
chain: MAQFDTEYQRLEASYSDSPPGEEDLLVHVAEGSKSPWHHIENLDLFFSRVYNLHQKNGFTCMLIGEIFELMQFLFVVAFTTFLVSCVDYDILFANKMVNHSLHPTEPVKVTLPDAFLPAQVCSARIQENGSLITILVIAGVFWIHRLIKFIYNICCYWEIHSFYLHALRIPMSALPYCTWQEVQARIVQTQKEHQICIHKRELTELDIYHRILRFQNYMVALVNKSLLPLRFRLPGLGEAVFFTRGLKYNFELILFWGPGSLFLNEWSLKAEYKRGGQRLELAQRLSNRILWIGIANFLLCPLILIWQILYAFFSYAEVLKREPGALGARCWSLYGRCYLRHFNELEHELQSRLNRGYKPASKYMNCFLSPLLTLLAKNGAFFAGSILAVLIALTIYDEDVLAVEHVLTTVTLLGVTVTVCRSFIPDQHMVFCPEQLLRVILAHIHYMPDHWQGNAHRSQTRDEFAQLFQYKAVFILEELLSPIVTPLILIFCLRPRALEIIDFFRNFTVEVVGVGDTCSFAQMDVRQHGHPQWLSAGQTEASVYQQAEDGKTELSLMHFAITNPGWQPPRESTAFLGFLKEQVQRDGAAASLAQGGLLPENALFTSIQSLQSESEPLSLIANVVAGSSCRGPPLPRDLQGSRHRAEVASALRSFSPLQPGQAPTGRAHSTMTGSGVDARTASSGSSVWEGQLQSLVLSEYASTEMSLHALYMHQLHKQQAQAEPERHVWHRRESDESGESAPDEGGEGARAPQSIPRSASYPCAAPRPGAPETTALHGGFQRRYGGITDPGTVPRVPSHFSRLPLGGWAEDGQSASRHPEPVPEEGSEDELPPQVHKV
